# Results are given in words; binding and its absence hold for the method and conditions named. In cells and extracts the contact can be indirect. Some entries that bind do so weakly or less than the wild type. Where a sequence is shown, tags or fusion partners need not be part of it.
# T1: GST-YdfD (E. coli BL21(DE3)) (UniProt P29010)
# T1 sequence: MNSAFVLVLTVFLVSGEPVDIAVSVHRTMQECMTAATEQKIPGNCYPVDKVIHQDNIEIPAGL
# T2: GST-YdfD∆N28 (E. coli BL21(DE3)) (UniProt P29010)
# T2 sequence: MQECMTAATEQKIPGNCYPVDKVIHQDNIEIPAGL
# T3: GST-YdfD∆C35 (E. coli BL21(DE3)) (UniProt P29010)
# T3 sequence: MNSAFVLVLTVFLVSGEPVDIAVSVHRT
# T4: IspG-His (E. coli BL21(DE3)) (UniProt P62620)
# T4 sequence: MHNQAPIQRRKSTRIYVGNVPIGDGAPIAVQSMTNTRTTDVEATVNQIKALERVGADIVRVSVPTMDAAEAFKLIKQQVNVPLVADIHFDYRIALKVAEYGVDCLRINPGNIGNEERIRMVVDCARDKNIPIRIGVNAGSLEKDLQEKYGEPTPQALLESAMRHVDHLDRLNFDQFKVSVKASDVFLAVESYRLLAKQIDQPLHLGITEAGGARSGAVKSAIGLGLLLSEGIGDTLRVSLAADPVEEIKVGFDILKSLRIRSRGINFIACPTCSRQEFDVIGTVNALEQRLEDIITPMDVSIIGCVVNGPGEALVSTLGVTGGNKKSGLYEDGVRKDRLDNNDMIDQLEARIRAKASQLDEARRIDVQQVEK
# T5: YdfD-CFP (E. coli BL21(DE3)) (UniProt P29010)
# T5 sequence: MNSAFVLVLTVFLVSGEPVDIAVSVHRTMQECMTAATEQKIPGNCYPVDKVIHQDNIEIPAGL
# Columns and labels:
# [1] = biological target: T1, GST-YdfD (E. coli BL21(DE3)); experiment: pull-down; candidate proteins from the MS screen recombinantly expressed and purified, tested with YdfD in another pull-down (Table 1, Figure S1)
# [2] = biological target: T2, GST-YdfD∆N28 (E. coli BL21(DE3)); experiment: pull-down; GST-YdfD or its deletion mutants coexpressed with IspG constructs in E. coli BL21(DE3); lysate supernatant on GST beads; 3 washes; SDS-PAGE and Western blotting
# [3] = biological target: T3, GST-YdfD∆C35 (E. coli BL21(DE3)); experiment: as above
# [4] = biological target: T1, GST-YdfD (E. coli BL21(DE3)); experiment: as above
# [5] = biological target: T4, IspG-His (E. coli BL21(DE3)); experiment: pull-down; IspG-His as bait on Ni beads, YdfD-HA as prey; SDS-PAGE and Western blotting
# [6] = biological target: T5, YdfD-CFP (E. coli BL21(DE3)); experiment: FRET or BRET; YdfD-CFP (donor) and IspG-YFP (acceptor) coexpressed in E. coli BL21(DE3), IPTG 8 h at 37 °C, confocal imaging of living cells; also under pH, osmotic and oxidative stress
binder,measurement,setting,value
"IspG-His (enzyme, E. coli BL21(DE3), UniProt P62620 1-372, looked up, ispG amplified from the E. coli BL21(DE3) genome; also called His-tagged ispG; GcpE; source: E. coli BL21(DE3); coexpressed with YdfD constructs, in lysate; and purified (Ni-NTA, Superdex 200)) MHNQAPIQRRKSTRIYVGNVPIGDGAPIAVQSMTNTRTTDVEATVNQIKALERVGADIVRVSVPTMDAAEAFKLIKQQVNVPLVADIHFDYRIALKVAEYGVDCLRINPGNIGNEERIRMVVDCARDKNIPIRIGVNAGSLEKDLQEKYGEPTPQALLESAMRHVDHLDRLNFDQFKVSVKASDVFLAVESYRLLAKQIDQPLHLGITEAGGARSGAVKSAIGLGLLLSEGIGDTLRVSLAADPVEEIKVGFDILKSLRIRSRGINFIACPTCSRQEFDVIGTVNALEQRLEDIITPMDVSIIGCVVNGPGEALVSTLGVTGGNKKSGLYEDGVRKDRLDNNDMIDQLEARIRAKASQLDEARRIDVQQVEK",binding,[1],binds
same,binding,[2],no binding
same,binding,[3],binds
same,binding,[4],binds
"YdfD (MBP tag cleaved) (natural protein, E. coli BL21(DE3), UniProt P29010 1-63, looked up, YdfD, lysis protein of the Qin cryptic prophage, 63 amino acids; ydfD amplified from the E. coli BL21(DE3) genome; No truncation is told for this construct; source: E. coli BL21(DE3), purified as MBP-YdfD (amylose resin), MBP cleaved by PreScission protease; not shown: MBP, N-terminal, cleaved) MNSAFVLVLTVFLVSGEPVDIAVSVHRTMQECMTAATEQKIPGNCYPVDKVIHQDNIEIPAGL",binding,[5],binds
"IspG 1-279 (domain or fragment, UniProt P62620 1-279) MHNQAPIQRRKSTRIYVGNVPIGDGAPIAVQSMTNTRTTDVEATVNQIKALERVGADIVRVSVPTMDAAEAFKLIKQQVNVPLVADIHFDYRIALKVAEYGVDCLRINPGNIGNEERIRMVVDCARDKNIPIRIGVNAGSLEKDLQEKYGEPTPQALLESAMRHVDHLDRLNFDQFKVSVKASDVFLAVESYRLLAKQIDQPLHLGITEAGGARSGAVKSAIGLGLLLSEGIGDTLRVSLAADPVEEIKVGFDILKSLRIRSRGINFIACPTCSRQEFD",binding,[3],binds
"IspG-YFP (enzyme, UniProt P62620 1-372) MHNQAPIQRRKSTRIYVGNVPIGDGAPIAVQSMTNTRTTDVEATVNQIKALERVGADIVRVSVPTMDAAEAFKLIKQQVNVPLVADIHFDYRIALKVAEYGVDCLRINPGNIGNEERIRMVVDCARDKNIPIRIGVNAGSLEKDLQEKYGEPTPQALLESAMRHVDHLDRLNFDQFKVSVKASDVFLAVESYRLLAKQIDQPLHLGITEAGGARSGAVKSAIGLGLLLSEGIGDTLRVSLAADPVEEIKVGFDILKSLRIRSRGINFIACPTCSRQEFDVIGTVNALEQRLEDIITPMDVSIIGCVVNGPGEALVSTLGVTGGNKKSGLYEDGVRKDRLDNNDMIDQLEARIRAKASQLDEARRIDVQQVEK",binding,[6],binds

# Reference: publication PMC8835842, “YdfD, a Lysis Protein of the Qin Prophage, Is a Specific Inhibitor of the IspG-Catalyzed Step in the MEP Pathway of Escherichia coli” (International Journal of Molecular Sciences, 2022)
